Source: publication PMC12040169 (PLOS Biology, 2025)
The other results are listed elsewhere or left out.

These molecules were tested on T1, CTL2-GFP (C. trachomatis L2/434/Bu, GFP-expressing). Conditions: bulk GFP, single well; 28.5 h, 10 µM; inhibitor.
T1 construct: L2/434/Bu, GFP-expressing
Design: species or system HeLa; Intracellular C. trachomatis growth in HeLa cells, bulk GFP fluorescence relative to DMSO
For CCN(CC)C(=O)CN1C(=O)[C@H]2CCCN2C(=O)c2ccccc21 [CBK286319], the “% of control remaining” value was 114.51%. For CN(CC(=O)Nc1cccnc1N1CCNCC1)C(=O)c1ccccc1 [CBK028264T], the “% of control remaining” value was 100%. CS(=O)(=O)N1CCCc2cc(-c3csc(N4CCCC4)n3)ccc21 [CBK306093] was tested, and the “% of control remaining” value was 139.174%. Cc1noc(C)c1NC(=O)c1cnccc1C(F)(F)F [CBK200306] was tested, and the “% of control remaining” value was 104.42%. With Cc1cc(NC(=O)c2nn(-c3ncccn3)c3ccccc23)n(C)n1 [CBK048505] the “% of control remaining” value was 100%. With CCCS(=O)(=O)Nc1nccnc1N1CCN(c2ccc3c(c2)OCO3)CC1 [CBK048824] the “% of control remaining” value was 107.628%. COc1cc(C=O)ccc1OC(=O)c1nsc(Cl)c1Cl [CBK266619] was tested, and the “% of control remaining” value was 118.71%. For N=C(N)NC1=NC(=O)C(CC(=O)Nc2ccc(Oc3ccccc3)cc2)S1 (stereo not drawn) [CBK300482], the “% of control remaining” value was 141.025%. For Cc1cccn2c(CN3CC(O)C3)c(C(=O)N3CCOCC3)nc12 [CBK306857], the “% of control remaining” value was 131.188%. With CC(=O)c1ccc(C(=O)N(C)Cc2ccc(F)cc2)s1 [CBK296660] the “% of control remaining” value was 126.69%. For CC(C)(C)Cc1nnc(N)s1 [CBK050161], the “% of control remaining” value was 124.139%. With NS(=O)(=O)c1ccc(C(=O)N2CCC3(CCN(C(=O)c4cc(F)c(F)cc4F)C3)C2)cc1 (stereo not drawn) [CBK131385] the “% of control remaining” value was 127.678%. With C#CCNS(=O)(=O)c1cccc(C(=O)NC2CCN(CCOC)CC2)c1 [CBK305714] the “% of control remaining” value was 109.675%. COC(=O)c1cnn(-c2cc(Oc3ccccc3C)ncn2)c1N [CBK098668] was tested, and the “% of control remaining” value was 94.6446%. For O=C(NCCN1CCC(O)(c2ccc(F)cc2)CC1)c1ccco1 [CBK283166], the “% of control remaining” value was 88.4348%. With Fc1cccc(SCc2ccccc2)c1 [CBK002912] the “% of control remaining” value was 93.4183%. In the case of O=C1CCCC2=C1C(c1ccccc1Cl)n1nnnc1N2 (stereo not drawn) [CBK288151], the “% of control remaining” value is reported as 143.572%. For O=C(O)CCc1ccc(-c2cccs2)n1NC(=O)c1ccc(Cl)cc1 [CBK264738], the “% of control remaining” value was 111.489%. For O=C(Nc1ccccc1)c1ccc2c(c1)C(=O)N(c1cccc(N3C(=O)c4ccc(C(=O)Nc5ccccc5)cc4C3=O)n1)C2=O [CBK261197], the “% of control remaining” value was 112.325%. In the case of O=C1CCC(=O)N1CCOc1nccnc1OC1CCN(Cc2ccc([N+](=O)[O-])cc2)CC1 [CBK084343], the “% of control remaining” value is reported as 105.931%. O=C(O)c1cccc(N2C(=O)C3C(C2=O)C2(c4ccccc4)C(=O)C3(c3ccccc3)C(c3ccccc3)=C2c2ccccc2)c1 (stereo not drawn) [CBK262439] was tested, and the “% of control remaining” value was 130.095%. For O=C(N1CCC(c2ccncc2)CC1)C1(c2ccccc2)CC1 [CBK285480], the “% of control remaining” value was 95.4043%. CC(C)N1CCCC(CNC(=O)c2cc(C3CCCCC3)no2)C1 (stereo not drawn) [CBK283294] was tested, and the “% of control remaining” value was 123.137%. In the case of Cc1c(NC(=O)c2cn3c4c(c(N5CCN(C)CC5)c(F)cc4c2=O)OCN3C)c(=O)n(-c2ccccc2)n1C [CBK263061], the “% of control remaining” value is reported as 100%. CN1CCN(CCCCC2(C)SC(NC3CCCCCC3)=NC2=O)CC1 (stereo not drawn) [CBK113259] was tested, and the “% of control remaining” value was 117.787%. In the case of COc1ccc(S(=O)(=O)N2CCN(C)CC2)cn1 [CBK269511], the “% of control remaining” value is reported as 137.27%. CC(C)c1noc(NCc2nnc3n2CCCCC3)n1 [CBK306352] was tested, and the “% of control remaining” value was 97.7143%. In the case of N=C1OC2CSCC2N1C(=O)Cc1ccc(F)cc1 (stereo not drawn) [CBK284515], the “% of control remaining” value is reported as 102.342%. For CC(C)(C)OC(=O)N1CCN(c2ccc(C(F)(F)F)c(Cl)n2)CC1 [CBK003030], the “% of control remaining” value was 102.365%. COc1ccc(N2C(=O)CC(NNC(=O)CNC(C)=O)C2=O)cc1 (stereo not drawn) [CBK267228] was tested, and the “% of control remaining” value was 138.665%. For O=C(NCCC(=O)N1CCCCC1)c1cccc(OCc2cscn2)c1 [CBK306384], the “% of control remaining” value was 92.0985%. In the case of O=C(c1ccccc1)N1CCCC(c2nccnc2-c2cccc(C(F)(F)F)c2)C1 (stereo not drawn) [CBK286218], the “% of control remaining” value is reported as 88.0819%. Cc1nc(Nc2cccc(C3CCCN3C(=O)COc3ccc(F)cc3)n2)sc1C (stereo not drawn) [CBK286019] was tested, and the “% of control remaining” value was 113.53%. For COc1cccc(C(=O)Nc2cc(C)c3c(=O)oc4ccccc4c3n2)c1OC [CBK287437], the “% of control remaining” value was 114.571%. CC(=O)Nc1cccc(-c2cncc(-c3ccc(O)cc3)n2)c1 [CBK123795] was tested, and the “% of control remaining” value was 107.383%. With CCn1cncc1C(=O)NCC1(c2ccccc2F)CCOCC1 [CBK281555] the “% of control remaining” value was 99.6667%. For c1csc(CCN2CCC3(CC2)OCCc2c3[nH]c3ccccc23)c1 [CBK040156], the “% of control remaining” value was 102.755%. In the case of Cc1cccc(Oc2nc3c(C)cccn3c(=O)c2/C=C(\C#N)c2nc3ccccc3[nH]2)c1 [CBK266528], the “% of control remaining” value is reported as 147.869%. In the case of COc1ccc(Nc2nc(N)nc(CSc3nncn3C)n2)cc1 [CBK266730], the “% of control remaining” value is reported as 158.409%.
